From patent US8461142B2, “Water-soluble anionic bacteriochlorophyll derivatives and their uses” (Yeda Research and Development Co. Ltd., priority 2002, dated 2013)
For at least one compound, name, drawing or mass did not settle the structure.

Experiment: Octanol/water partition ratio
Assay type: physicochemical

## CCC1C2=Cc3c(C)c(C(=O)NCCS(=O)(=O)[O-])c4[n]3[Cu][n]3c(c(C)c(C(C)=O)c3=CC(=N2)C1C)=CC1=NC(=C4CC(=O)OC)C(CCC(=O)[O-])C1C.[K+].[K+] (centres unmarked) [Compound 10, Copper(II) 3^1-oxo-15-methoxycarbonylmethyl-Rhodobacteriochlorin 13^1-(2-sulfoethyl)amide dipotassium salt]
  Octanol/water partition ratio: 40:60

## CC[C@H]1c2cc3[nH]c(c(CC(=O)OC)c4nc(cc5[nH]c(cc(n2)[C@@H]1C)c(C(C)=O)c5C)[C@@H](C)[C@@H]4CCC(=O)O)c(C(=O)NCCS(=O)(=O)[O-])c3C.[K+] [Compound 5, 3^1-oxo-15-methoxycarbonylmethyl-Rhodobacteriochlorin 13^1-(2-sulfoethyl)amide dipotassium salt]
  Octanol/water partition ratio: 60:40
